The filed quantity is “Percent Effect” (%). The controls that fix the scale are not given in the record; negative values are as filed. The compounds are a random part of those screened. Two or more numbers in one place are separate tests of the same structure; such repeats can differ widely. A dash means the value is not listed here; it may have been measured.

By UniProt entry, the sequences of proteins in these tests, tags left out. Residues count along the entry.
UniProt A4I591, 1-473: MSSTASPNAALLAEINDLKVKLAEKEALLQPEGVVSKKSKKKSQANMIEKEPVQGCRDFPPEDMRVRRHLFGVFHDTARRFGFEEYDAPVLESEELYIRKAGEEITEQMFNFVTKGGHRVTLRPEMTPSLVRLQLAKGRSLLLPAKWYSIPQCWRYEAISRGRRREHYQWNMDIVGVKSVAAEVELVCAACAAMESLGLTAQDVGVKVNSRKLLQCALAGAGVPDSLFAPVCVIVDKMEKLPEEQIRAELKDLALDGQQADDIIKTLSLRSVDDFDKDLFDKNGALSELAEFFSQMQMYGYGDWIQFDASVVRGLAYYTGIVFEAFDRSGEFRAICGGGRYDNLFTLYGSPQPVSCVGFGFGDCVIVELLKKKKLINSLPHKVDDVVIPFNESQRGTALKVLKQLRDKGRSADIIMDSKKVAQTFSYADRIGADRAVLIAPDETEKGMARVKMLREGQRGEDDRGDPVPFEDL
UniProt Q4DA54, 1-478: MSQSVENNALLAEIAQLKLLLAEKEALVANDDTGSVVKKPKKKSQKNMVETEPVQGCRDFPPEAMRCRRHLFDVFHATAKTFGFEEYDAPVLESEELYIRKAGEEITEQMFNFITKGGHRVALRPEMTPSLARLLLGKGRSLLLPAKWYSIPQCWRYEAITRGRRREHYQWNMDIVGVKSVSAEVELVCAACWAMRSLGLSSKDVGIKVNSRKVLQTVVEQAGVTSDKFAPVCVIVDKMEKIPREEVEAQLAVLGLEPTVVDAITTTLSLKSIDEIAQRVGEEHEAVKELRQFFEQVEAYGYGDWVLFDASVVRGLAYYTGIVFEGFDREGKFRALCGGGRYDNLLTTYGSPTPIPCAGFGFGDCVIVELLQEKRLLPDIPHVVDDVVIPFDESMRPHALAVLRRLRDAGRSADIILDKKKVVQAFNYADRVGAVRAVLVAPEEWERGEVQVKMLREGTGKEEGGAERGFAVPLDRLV
UniProt Q8IDJ8, 1-583: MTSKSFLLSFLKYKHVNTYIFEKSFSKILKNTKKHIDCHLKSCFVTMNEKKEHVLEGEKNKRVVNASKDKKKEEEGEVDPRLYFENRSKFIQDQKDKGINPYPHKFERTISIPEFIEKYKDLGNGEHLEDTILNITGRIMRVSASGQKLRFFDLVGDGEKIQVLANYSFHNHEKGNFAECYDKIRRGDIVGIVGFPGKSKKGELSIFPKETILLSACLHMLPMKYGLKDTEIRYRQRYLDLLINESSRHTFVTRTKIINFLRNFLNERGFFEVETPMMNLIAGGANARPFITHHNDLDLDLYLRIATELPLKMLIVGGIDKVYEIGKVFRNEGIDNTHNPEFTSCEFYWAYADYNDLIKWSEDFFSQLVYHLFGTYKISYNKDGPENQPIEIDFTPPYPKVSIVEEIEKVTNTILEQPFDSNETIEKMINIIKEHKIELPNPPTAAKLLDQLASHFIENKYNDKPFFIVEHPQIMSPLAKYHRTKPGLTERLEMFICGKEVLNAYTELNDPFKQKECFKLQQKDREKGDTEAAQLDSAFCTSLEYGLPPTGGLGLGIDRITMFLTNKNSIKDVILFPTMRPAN

LiHisRS: 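Histidine-tRNA ligase, Leishmania infantum (UniProt A4I591). Enzyme assay of histidyl-tRNA synthetase; the read-out is not stated. Tested at 30 µM. Direction is inferred from retests: higher values go with stronger inhibition. The assay is labelled LdHisRS but filed under L. infantum. Of about 69,000 compounds tested this way, about 410 (0.6%) reached 50% or more in at least one test.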
TcHisRS: 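Enzyme assay of histidyl-tRNA synthetase; the read-out is not stated. Target: Histidine-tRNA ligase, Trypanosoma cruzi CL Brener (UniProt Q4DA54). Tested at 30 µM. Direction is inferred from retests: higher values go with stronger inhibition. About 69,000 compounds were tested under these conditions; 0.045% (about 31) showed 50% or more at least once.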
PfKRS1: 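Enzyme assay of the cytosolic lysyl-tRNA synthetase in 384-well plates, read by luminescence. Target: Lysine-tRNA ligase, Plasmodium falciparum 3D7 (UniProt Q8IDJ8). Concentration: 30 µM. Higher reads as stronger inhibition, judged from the few compounds that gave an IC50. Size under these conditions: about 69,000 compounds, about 49 of them at 50% or above in at least one test.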
Leishmania in macrophages: 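Cell assay of Leishmania donovani living inside macrophages; the read-out is not stated. Tested at 30 µM. The record gives no direction; compounds that gave an IC50 in retests scored well above the rest, so higher reads as stronger inhibition. Size under these conditions: about 69,000 compounds, about 1,000 of them at 50% or above in at least one test.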

structure: CCOc1ccccc1C(CC(=O)Nc1ccccc1F)NC(C)=O (centres undefined)
LiHisRS: 18.4
TcHisRS: -3.422
PfKRS1: -1.273
Leishmania in macrophages: -12.83

structure: CCC(=O)N1CCC2(CC1)C(c1cccnc1)CC(=O)N2CCOC.O=C(O)C(F)(F)F (centres undefined)
Leishmania in macrophages: 5.78

structure: N[C@H]1CN(C(=O)c2ccc(Cl)cc2O)C[C@@H]1C1CC1
LiHisRS: -15.38
TcHisRS: 6.627
PfKRS1: 3.461
Leishmania in macrophages: 21.58

structure: O=C(O)C(F)(F)F.[H][C@@]12CN(C(=O)c3ccoc3)C[C@]1([H])OCCN2c1ncccn1
Leishmania in macrophages: 10.14

structure: COCC1CN(C(=O)Cc2ccccn2)Cc2ncn(C)c21 (centres undefined)
LiHisRS: 17.24
TcHisRS: 6.329
PfKRS1: 15.5
Leishmania in macrophages: 21.19

structure: COCCOc1cccc(CNCc2c(C)nn(C)c2N(C)C)c1
LiHisRS: 3.67
TcHisRS: 4.118
PfKRS1: 1.121
Leishmania in macrophages: 25.88

structure: COc1ccccc1C(=O)C1CCCN(c2cc(C#N)ccn2)C1 (centres undefined)
LiHisRS: 6.452
TcHisRS: 1.754
PfKRS1: 0.8382
Leishmania in macrophages: 19.02

structure: Cc1ccc(S(=O)(=O)NCCc2ccoc2)s1
LiHisRS: 18.18
TcHisRS: 4.848
PfKRS1: 2.415
Leishmania in macrophages: 4.09

structure: Cc1cc(C2CCC2)nc(NCC(C)(C)CO)n1
LiHisRS: 18.99
TcHisRS: 3.879
PfKRS1: 5.386
Leishmania in macrophages: 19.33

structure: COc1ccc(NC(=O)CCN2CC=C(c3cnn(C)c3)CC2)cc1Cl
LiHisRS: 14.16
TcHisRS: 2.679
PfKRS1: 6.23
Leishmania in macrophages: 34.18

structure: Cc1ccc(F)c(NCC(C)(C)S(C)(=O)=O)c1
LiHisRS: 19.18
TcHisRS: 4.372
PfKRS1: 6.385
Leishmania in macrophages: 14.84

structure: Cc1nnc([C@@H]2CCO[C@@H]3CCN(C(=O)Cc4ccccn4)C[C@@H]32)o1
LiHisRS: 15.79
TcHisRS: -1.149
PfKRS1: 3.696

structure: N#CCCNC(=O)CN1CC(n2cccn2)C1
LiHisRS: 5.357
TcHisRS: 0
PfKRS1: 2.131
Leishmania in macrophages: 19.71

structure: Cc1noc(C(C)C)c1C(=O)NCc1ccc2c(c1)OCCO2
LiHisRS: 12.17
TcHisRS: 2.874
PfKRS1: 0.9094
Leishmania in macrophages: 16.86

structure: Cl.O=C(OCC1CCCN1)c1cccc(NC(=O)c2ccco2)c1 (centres undefined)
Leishmania in macrophages: 19.64

structure: CNc1nc(C(=O)N2C[C@H]3CC[C@@H]2CN(S(C)(=O)=O)C3)cs1
LiHisRS: -43.75
TcHisRS: -5.587
PfKRS1: 1.246

structure: COCC(O)CN(C)C(=O)NC1CCN(S(C)(=O)=O)CC1 (centres undefined)
LiHisRS: 9.333
TcHisRS: 1.734
PfKRS1: 8.434
Leishmania in macrophages: -2.248

structure: Cc1ccn(CC(=O)N2CC[C@@H](c3ccc4ccccc4c3)[C@H](O)C2)n1
LiHisRS: 15.79
TcHisRS: 4.372
PfKRS1: 0.3941
Leishmania in macrophages: 26.66

structure: O=C(NCCNc1cc(-n2cccc2)ncn1)c1cccs1
LiHisRS: 10.43
TcHisRS: 7.216
PfKRS1: 3.316
Leishmania in macrophages: 11.67 & 17.85

structure: O=C(O)C(F)(F)F.O=C(O)C(F)(F)F.O=C(c1ccsc1)N1CCOC2(CCN(Cc3cccnc3)CC2)C1
Leishmania in macrophages: 28.06

structure: CNS(=O)(=O)c1ccc(CNC(=O)Nc2cn[nH]c2)cc1
LiHisRS: 16.36
TcHisRS: 6.433
PfKRS1: 0.5404
Leishmania in macrophages: 17.19

structure: CCc1nc(Cn2nc(COC)oc2=O)cs1
LiHisRS: 5.128
TcHisRS: 0
PfKRS1: 1.212
Leishmania in macrophages: 16.16

structure: Cc1cnccc1N1CCCN(C(=O)CCCc2cn[nH]c2)CC1
LiHisRS: 7.692
TcHisRS: -0.8264
PfKRS1: -2.052
Leishmania in macrophages: 6.587

structure: OC(CN(Cc1ccccc1)Cc1ccon1)c1ccco1 (centres undefined)
LiHisRS: 24.56
TcHisRS: -0.8403
PfKRS1: 2.865
Leishmania in macrophages: -11.98

structure: CCC(CC)NC(=O)NCc1ccnc(-n2ccnc2C)c1
LiHisRS: 11.29
TcHisRS: 9.278
PfKRS1: -1.489
Leishmania in macrophages: -35.36

structure: CCc1c(C)nc2cc(-c3nccn3C)nn2c1N1CCCC(CO)C1 (centres undefined)
LiHisRS: 12.59
TcHisRS: -2.26
PfKRS1: -0.1886
Leishmania in macrophages: 31.95

structure: CCCc1n[nH]c(C2CN(C(=O)c3cccc4[nH]ncc34)CCO2)n1 (centres undefined)
LiHisRS: 9.821
TcHisRS: 2.89
PfKRS1: 1.033
Leishmania in macrophages: 25.77

structure: Cc1cccc(C(=O)N2CCCCC2c2nc3cc(F)ccc3[nH]2)n1 (centres undefined)
LiHisRS: 11.11
TcHisRS: 3.125
PfKRS1: 0.7951
Leishmania in macrophages: 32.48

structure: Cc1cc(C)nc(N2CCN(Cc3nccn3C)CC2)n1
LiHisRS: 19.79
TcHisRS: 6.383
PfKRS1: 2.11

structure: CCc1nc(C2CCCN2c2ncc(Br)cn2)no1 (centres undefined)
LiHisRS: 5.714
TcHisRS: 5.155
PfKRS1: 1.39
Leishmania in macrophages: 0.5179

structure: CCc1c(C)sc2ncnc(N3C[C@H](O)[C@@H](N4CCCC4)C3)c12
LiHisRS: 42.86
TcHisRS: 18.18
PfKRS1: 5.58
Leishmania in macrophages: 27.62

Once more, the final 4:

structure	LiHisRS	TcHisRS	PfKRS1	Leishmania in macrophages
Cc1cccc(C(=O)N2CCCCC2c2nc3cc(F)ccc3[nH]2)n1 (centres undefined)	11.11	3.125	0.7951	32.48
Cc1cc(C)nc(N2CCN(Cc3nccn3C)CC2)n1	19.79	6.383	2.11	-
CCc1nc(C2CCCN2c2ncc(Br)cn2)no1 (centres undefined)	5.714	5.155	1.39	0.5179
CCc1c(C)sc2ncnc(N3C[C@H](O)[C@@H](N4CCCC4)C3)c12	42.86	18.18	5.58	27.62

Data taken from ChEMBL document CHEMBL3988442, “University of Dundee, Small-Polar-MMV Screening Library” (2021).